Reference: PubChem BioAssay AID1347131 (National Center for Advancing Translational Sciences (NCATS), 2019)
The campaign covered roughly 410,000 compounds. About 2,000 (0.49%) were called active. The inconclusive results got no clear call from the source; some entries with a clear call stand among them for comparison. Calls follow the shape of the full dose curve; tested in HEK293 reporter line. Potencies of inconclusive entries are doubtful fits and often do not repeat.

assay: qHTS Assay for Foot and Mouth Disease Virus Antivirals: Primary Screen against the MLPCN compound library; conditions: FMDV antiviral cell-based qHTS; series mostly up to 57.9 µM; also: nearly all actives have a fitted effect of over 55% in size
Potency is read from the fitted curve at half-maximal effect.

SMILES	Potency
O=C(NCCc1csc(-c2ccc(C(F)(F)F)cc2)n1)c1ccc(F)c(F)c1	inconclusive: 20 µM [inhibitor, partial curve, poor fit]
O=C([O-])c1cc(-c2ccccc2)cc(-c2ccccc2)[n+]1CCc1ccc(Cl)cc1	inconclusive: 35.5 µM [inhibitor, partial curve, poor fit]
O=C(O)CSc1nnc(COc2ccccc2)n1-c1ccccc1	inconclusive: 1.12 µM [inhibitor, full curve]
Cc1c(C(=O)N2CCN(Cc3ccc4c(c3)OCO4)CC2)sc2ncnc(N3CCN(c4ccccc4)CC3)c12	inconclusive: 2.51 µM [inhibitor, partial curve, poor fit]
S=C1Cc2ccccc2N1	inconclusive: 31.6 µM [inhibitor, partial curve, poor fit]
CCOc1ccc(CCNC(=O)c2ccc(C)c(S(=O)(=O)N3CCOCC3)c2)cc1OCC	inconclusive: 22.4 µM [inhibitor, partial curve, poor fit]
Cc1ccc2nc(-c3cccc(SC4CCCCC4)c3)c(NCc3ccccc3)n2c1	inconclusive: 25.1 µM [inhibitor, partial curve, poor fit]
CCOC(=O)/C=C/C(=O)Nc1cccc([N+](=O)[O-])c1	inconclusive: 25.1 µM [inhibitor, partial curve, poor fit]
Cn1nc(-c2ccccn2)nc2c(=O)n(C)c(=O)nc1-2	inconclusive: 1.26 µM [inhibitor, full curve, poor fit]
CC(=O)NC1CCCN(O)C(=O)/C=C(\C)CCOC(=O)C(NC(C)=O)CCCN(O)C(=O)/C=C(\C)CCOC(=O)C(NC(C)=O)CCCN(O)C(=O)/C=C(\C)CCOC1=O (stereo not given)	inconclusive: 20 µM [inhibitor, partial curve, poor fit]
Cn1c(SCC(=O)N2CCN(c3ccccc3)CC2)nnc1-c1cc2ccccc2o1	inconclusive: 3.55 µM [inhibitor, full curve, poor fit]
Cc1cc(N2CCN(C)CC2)ccc1NC(=O)c1ccc(-c2ccc(Cl)cc2)o1	inconclusive: 17.8 µM [inhibitor, partial curve]
Fc1cccc(/C=N/Nc2ccc3ccccc3n2)c1	active: 12.6 µM
CC(=CCOc1ccc2ccc(=O)oc2c1)C1=CC(=O)C(C)(C)O1	inconclusive: 28.2 µM [inhibitor, partial curve, poor fit]
CC(C)CCSc1nc2c(c(=O)[nH]c(=O)n2C)n1CCc1ccccc1	inconclusive: 8.91 µM [inhibitor, partial curve, poor fit]

Exported bar-delimited: part of the list above
SMILES | Potency
CCOc1ccc(CCNC(=O)c2ccc(C)c(S(=O)(=O)N3CCOCC3)c2)cc1OCC | inconclusive: 22.4 µM [inhibitor, partial curve, poor fit]
Cc1ccc2nc(-c3cccc(SC4CCCCC4)c3)c(NCc3ccccc3)n2c1 | inconclusive: 25.1 µM [inhibitor, partial curve, poor fit]
